Counter-ions that a name gives are not always drawn. Some of the results follow. Repeats are few or missing, and single values can be far off.
Tested on: SK-N-BE(2)
Assay: inhibition of N-Myc immunofluorescence signal per cell relative to control (fraction); higher = stronger N-Myc protein reduction
Conditions: 1 µM; 9 h

Row | Structure (SMILES) | inhibition of N-Myc immunofluorescence signal per cell
1 | O=C(O)CNC(=O)C1C(=O)N(C2CCCCC2)C(=O)N(C2CCCCC2)C1=O [Daprodustat] | -0.172
2 | N[C@@H](CNC(=O)C(=O)O)C(=O)O [Dencichine] | 0.0506
3 | C[S+]([O-])CCCCN=C=S (stereo not drawn) [Sulforaphane] | 0.278
4 | Cn1c(CCCCCCC(=O)NO)nc2cc(N(CCCl)CCCl)ccc21 | -0.0731
5 | CC1=C(O)C(=O)C=C2C1=CC=C1[C@@]2(C)CC[C@@]2(C)[C@@H]3C[C@](C)(C(=O)O)CC[C@]3(C)CC[C@]12C [Tripterin] | 0.175
6 | O=C(O)CNC(=O)c1c(O)c2ccccc2n(Cc2ccccc2)c1=O | -0.063
7 | C[C@@H]1CC[C@]2(NC1)O[C@H]1C[C@H]3[C@@H]4CC=C5C[C@@H](O)CC[C@]5(C)[C@H]4CC[C@]3(C)[C@H]1[C@@H]2C [Solasodine] | 0.0695
8 | Cc1cc(C(=O)CN2CCCC2)c(C)n1-c1ccc(F)cc1 | 0.0499
9 | CCCCCCCCCCCCCCC(Br)C(=O)O (stereo not drawn) | 0.0216
10 | Cc1sc2c(c1C)C(c1ccc(Cl)cc1)=N[C@@H](CC(=O)OC(C)(C)C)c1nnc(C)n1-2 | 0.347
11 | c1cncc(C2Nc3ccccc3-n3cccc32)c1 (stereo not drawn) | 0.0708
12 | Cc1cc2c(C(C)C)c(O)c(O)c(C=O)c2c(O)c1-c1c(C)cc2c(C(C)C)c(O)c(O)c(C=O)c2c1O [Gossypol] | -0.0819
13 | CC(=O)OC(C)(C)/C=C/C(=O)[C@](C)(O)[C@H]1[C@H](O)C[C@@]2(C)[C@@H]3CC=C4[C@H](C[C@H](O)C(=O)C4(C)C)[C@]3(C)C(=O)C[C@]12C [Cucurbitacin B] | 0.579
14 | CC(=O)N[C@H]1[C@@H](O[C@@H]2O[C@H](CC(O)[C@H]3O[C@@H](n4ccc(=O)[nH]c4=O)[C@H](O)[C@@H]3O)[C@H](O)[C@H](O)[C@H]2NC(=O)/C=C/CC(C)C)O[C@H](CO)[C@@H](N)[C@@H]1O (stereo partly drawn) [Tunicamycin] | 0.107
15 | COc1cc(C)[nH]c(=O)c1CNC(=O)c1c(C)n([C@H](C)C2CCOCC2)c2ccccc12 | 0.0249
16 | c1ccc([C@@H]2C[C@H]2NC2CCNCC2)cc1 [GSK-LSD1 (dihydrochloride)] | -0.244
17 | C[C@H]1CC[C@]2(NC1)O[C@H]1C[C@H]3[C@@H]4CC[C@H]5C[C@@H](O[C@@H]6O[C@H](CO)[C@H](O[C@@H]7O[C@H](CO)[C@@H](O)[C@H](O[C@@H]8OC[C@@H](O)[C@H](O)[C@H]8O)[C@H]7O[C@@H]7O[C@H](CO)[C@@H](O)[C@H](O)[C@H]7O)[C@H](O)[C@H]6O)CC[C@]5(C)[C@H]4CC[C@]3(C)[C@H]1[C@@H]2C [Tomatine] | -0.0411
18 | CN(C)NC(=O)CCC(=O)O [Daminozide] | 0.127

4 compounds already listed, arranged by SMILES length, largest number first:
Row | Structure (SMILES) | inhibition of N-Myc immunofluorescence signal per cell
5 | CC1=C(O)C(=O)C=C2C1=CC=C1[C@@]2(C)CC[C@@]2(C)[C@@H]3C[C@](C)(C(=O)O)CC[C@]3(C)CC[C@]12C [Tripterin] | 0.175
12 | Cc1cc2c(C(C)C)c(O)c(O)c(C=O)c2c(O)c1-c1c(C)cc2c(C(C)C)c(O)c(O)c(C=O)c2c1O [Gossypol] | -0.0819
8 | Cc1cc(C(=O)CN2CCCC2)c(C)n1-c1ccc(F)cc1 | 0.0499
16 | c1ccc([C@@H]2C[C@H]2NC2CCNCC2)cc1 [GSK-LSD1 (dihydrochloride)] | -0.244

From the supplement of paper PMC12259267, “Disruption of the KLHL37–N-Myc complex restores N-Myc degradation and arrests neuroblastoma growth in mouse models” (The Journal of Clinical Investigation, 2025)
